Assay results reported in the supplement of paper PMC12823440, “Inhibitors supercharge kinase turnover through native proteolytic circuits” (Nature, 2025).
Counter-ions that a name gives are not always drawn. Some of the results follow. The calls rarely recur for the same compound in another form.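 In K562 cells expressing nanoluciferase-fused kinases, luminescence was recorded at 4 h intervals between 2 and 18 h, normalized as percent of control with DMSO at 100% and a positive control at 0%. A significant (2 sigma) signal drop marks a time point as decreased. The authors' rule for a hit is not shown and takes in more than the number of time points.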

The chains behind the UniProt entries cited, without tags or fusion partners. Where a name states a change or a piece, a line headed by the entry shows the natural chain unless it says otherwise.
UniProt P29317, whole entry: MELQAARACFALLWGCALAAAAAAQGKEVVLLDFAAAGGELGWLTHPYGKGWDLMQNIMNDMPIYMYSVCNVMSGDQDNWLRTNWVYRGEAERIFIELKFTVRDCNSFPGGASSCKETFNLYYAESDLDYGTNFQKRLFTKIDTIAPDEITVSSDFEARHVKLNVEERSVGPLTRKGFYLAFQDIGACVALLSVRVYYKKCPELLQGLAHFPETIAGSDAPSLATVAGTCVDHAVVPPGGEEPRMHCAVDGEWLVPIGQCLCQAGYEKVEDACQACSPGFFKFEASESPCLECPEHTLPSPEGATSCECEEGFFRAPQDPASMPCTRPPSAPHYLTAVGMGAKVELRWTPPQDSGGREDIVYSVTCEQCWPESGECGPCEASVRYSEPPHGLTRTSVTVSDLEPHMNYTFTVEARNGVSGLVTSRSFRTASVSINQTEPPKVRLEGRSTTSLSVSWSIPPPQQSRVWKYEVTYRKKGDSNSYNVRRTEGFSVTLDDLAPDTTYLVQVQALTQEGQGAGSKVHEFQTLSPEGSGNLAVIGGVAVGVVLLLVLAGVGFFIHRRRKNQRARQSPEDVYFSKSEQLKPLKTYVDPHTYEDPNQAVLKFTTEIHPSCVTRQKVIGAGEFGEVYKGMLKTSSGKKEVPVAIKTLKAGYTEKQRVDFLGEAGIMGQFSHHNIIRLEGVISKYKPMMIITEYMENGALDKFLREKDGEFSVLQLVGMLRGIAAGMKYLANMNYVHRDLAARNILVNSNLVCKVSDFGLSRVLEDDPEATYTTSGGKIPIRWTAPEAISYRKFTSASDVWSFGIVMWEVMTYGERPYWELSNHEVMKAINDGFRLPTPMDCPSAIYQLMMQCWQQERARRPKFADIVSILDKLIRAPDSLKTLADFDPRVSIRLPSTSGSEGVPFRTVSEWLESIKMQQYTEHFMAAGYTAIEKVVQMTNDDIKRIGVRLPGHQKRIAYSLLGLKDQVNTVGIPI
UniProt Q15303, whole entry R711C: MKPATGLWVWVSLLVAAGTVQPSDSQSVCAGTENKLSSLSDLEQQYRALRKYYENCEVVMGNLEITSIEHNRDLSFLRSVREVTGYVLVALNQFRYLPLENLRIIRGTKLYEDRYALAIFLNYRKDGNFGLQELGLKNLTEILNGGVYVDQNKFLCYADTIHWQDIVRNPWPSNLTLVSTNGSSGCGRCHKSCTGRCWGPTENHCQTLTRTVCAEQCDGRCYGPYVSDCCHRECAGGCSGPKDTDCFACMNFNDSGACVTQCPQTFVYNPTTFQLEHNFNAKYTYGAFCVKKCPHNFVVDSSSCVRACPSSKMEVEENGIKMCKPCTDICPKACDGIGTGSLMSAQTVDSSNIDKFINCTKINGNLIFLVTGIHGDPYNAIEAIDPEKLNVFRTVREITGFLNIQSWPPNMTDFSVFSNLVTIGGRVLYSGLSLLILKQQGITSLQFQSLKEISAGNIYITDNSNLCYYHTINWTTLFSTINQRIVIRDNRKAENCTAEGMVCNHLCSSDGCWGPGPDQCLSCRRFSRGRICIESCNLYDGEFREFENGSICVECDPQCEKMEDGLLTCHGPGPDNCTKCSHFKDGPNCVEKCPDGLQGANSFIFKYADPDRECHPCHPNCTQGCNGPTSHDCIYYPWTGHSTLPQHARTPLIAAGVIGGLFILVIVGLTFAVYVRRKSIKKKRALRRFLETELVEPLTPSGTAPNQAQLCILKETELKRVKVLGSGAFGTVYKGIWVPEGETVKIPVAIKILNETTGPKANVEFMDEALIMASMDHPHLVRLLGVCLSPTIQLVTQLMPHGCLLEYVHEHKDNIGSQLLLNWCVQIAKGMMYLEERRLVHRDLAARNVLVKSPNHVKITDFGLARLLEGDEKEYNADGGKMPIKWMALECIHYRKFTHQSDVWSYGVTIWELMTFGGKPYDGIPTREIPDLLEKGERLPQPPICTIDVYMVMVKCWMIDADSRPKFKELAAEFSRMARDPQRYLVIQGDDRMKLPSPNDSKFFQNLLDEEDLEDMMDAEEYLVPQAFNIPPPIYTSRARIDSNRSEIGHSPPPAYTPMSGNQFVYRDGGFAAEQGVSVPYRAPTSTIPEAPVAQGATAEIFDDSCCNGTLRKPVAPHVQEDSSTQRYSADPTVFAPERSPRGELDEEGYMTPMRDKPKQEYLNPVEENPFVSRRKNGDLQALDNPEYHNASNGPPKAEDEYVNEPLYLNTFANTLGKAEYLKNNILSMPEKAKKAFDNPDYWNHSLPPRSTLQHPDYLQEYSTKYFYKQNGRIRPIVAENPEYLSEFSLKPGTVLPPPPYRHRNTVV
UniProt O75460: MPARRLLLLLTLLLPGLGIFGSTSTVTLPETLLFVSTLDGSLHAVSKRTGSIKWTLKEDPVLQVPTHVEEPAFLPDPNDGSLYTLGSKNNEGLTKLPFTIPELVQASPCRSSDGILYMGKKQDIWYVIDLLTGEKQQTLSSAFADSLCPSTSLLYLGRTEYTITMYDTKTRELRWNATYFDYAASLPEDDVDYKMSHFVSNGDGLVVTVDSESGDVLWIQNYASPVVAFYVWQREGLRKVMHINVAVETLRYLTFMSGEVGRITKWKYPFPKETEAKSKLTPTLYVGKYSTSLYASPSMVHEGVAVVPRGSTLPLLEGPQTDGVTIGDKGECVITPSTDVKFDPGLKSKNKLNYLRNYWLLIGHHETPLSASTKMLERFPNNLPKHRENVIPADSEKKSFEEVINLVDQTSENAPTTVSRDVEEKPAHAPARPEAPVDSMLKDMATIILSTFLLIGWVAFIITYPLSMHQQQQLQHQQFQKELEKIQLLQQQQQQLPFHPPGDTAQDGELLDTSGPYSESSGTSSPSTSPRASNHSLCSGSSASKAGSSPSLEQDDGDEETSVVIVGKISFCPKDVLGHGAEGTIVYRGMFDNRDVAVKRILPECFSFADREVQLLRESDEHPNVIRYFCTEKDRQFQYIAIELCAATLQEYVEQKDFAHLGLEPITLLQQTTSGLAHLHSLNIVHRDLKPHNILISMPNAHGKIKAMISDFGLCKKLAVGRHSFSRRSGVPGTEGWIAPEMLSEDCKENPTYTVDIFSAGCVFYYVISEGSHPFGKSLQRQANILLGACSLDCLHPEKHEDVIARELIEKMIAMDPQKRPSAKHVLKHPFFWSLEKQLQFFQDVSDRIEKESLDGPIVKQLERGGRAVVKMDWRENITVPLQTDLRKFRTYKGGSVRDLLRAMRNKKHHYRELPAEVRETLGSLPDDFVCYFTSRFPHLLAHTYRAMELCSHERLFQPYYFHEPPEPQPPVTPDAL
UniProt P11362, whole entry, looked up: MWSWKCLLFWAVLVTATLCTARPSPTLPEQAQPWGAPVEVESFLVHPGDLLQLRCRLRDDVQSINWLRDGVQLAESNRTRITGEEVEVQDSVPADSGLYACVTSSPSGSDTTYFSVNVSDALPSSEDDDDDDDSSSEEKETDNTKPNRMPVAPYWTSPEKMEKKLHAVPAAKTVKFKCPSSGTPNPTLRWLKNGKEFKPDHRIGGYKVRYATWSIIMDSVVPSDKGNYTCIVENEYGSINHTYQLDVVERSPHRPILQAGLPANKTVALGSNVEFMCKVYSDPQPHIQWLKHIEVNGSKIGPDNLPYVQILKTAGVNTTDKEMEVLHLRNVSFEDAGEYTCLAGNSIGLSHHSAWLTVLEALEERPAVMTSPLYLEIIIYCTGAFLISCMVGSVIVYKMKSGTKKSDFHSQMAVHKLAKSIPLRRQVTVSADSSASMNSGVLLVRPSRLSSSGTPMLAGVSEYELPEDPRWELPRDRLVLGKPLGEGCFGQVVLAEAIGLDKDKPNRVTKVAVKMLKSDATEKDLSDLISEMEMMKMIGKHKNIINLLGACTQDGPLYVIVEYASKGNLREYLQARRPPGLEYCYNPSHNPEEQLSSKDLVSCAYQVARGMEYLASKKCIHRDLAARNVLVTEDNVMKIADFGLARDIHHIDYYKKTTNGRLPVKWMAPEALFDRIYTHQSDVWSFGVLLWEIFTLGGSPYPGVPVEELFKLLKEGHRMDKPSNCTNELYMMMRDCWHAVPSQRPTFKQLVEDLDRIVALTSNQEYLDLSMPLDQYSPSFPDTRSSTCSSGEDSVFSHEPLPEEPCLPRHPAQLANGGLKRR
UniProt P22607, whole entry, looked up: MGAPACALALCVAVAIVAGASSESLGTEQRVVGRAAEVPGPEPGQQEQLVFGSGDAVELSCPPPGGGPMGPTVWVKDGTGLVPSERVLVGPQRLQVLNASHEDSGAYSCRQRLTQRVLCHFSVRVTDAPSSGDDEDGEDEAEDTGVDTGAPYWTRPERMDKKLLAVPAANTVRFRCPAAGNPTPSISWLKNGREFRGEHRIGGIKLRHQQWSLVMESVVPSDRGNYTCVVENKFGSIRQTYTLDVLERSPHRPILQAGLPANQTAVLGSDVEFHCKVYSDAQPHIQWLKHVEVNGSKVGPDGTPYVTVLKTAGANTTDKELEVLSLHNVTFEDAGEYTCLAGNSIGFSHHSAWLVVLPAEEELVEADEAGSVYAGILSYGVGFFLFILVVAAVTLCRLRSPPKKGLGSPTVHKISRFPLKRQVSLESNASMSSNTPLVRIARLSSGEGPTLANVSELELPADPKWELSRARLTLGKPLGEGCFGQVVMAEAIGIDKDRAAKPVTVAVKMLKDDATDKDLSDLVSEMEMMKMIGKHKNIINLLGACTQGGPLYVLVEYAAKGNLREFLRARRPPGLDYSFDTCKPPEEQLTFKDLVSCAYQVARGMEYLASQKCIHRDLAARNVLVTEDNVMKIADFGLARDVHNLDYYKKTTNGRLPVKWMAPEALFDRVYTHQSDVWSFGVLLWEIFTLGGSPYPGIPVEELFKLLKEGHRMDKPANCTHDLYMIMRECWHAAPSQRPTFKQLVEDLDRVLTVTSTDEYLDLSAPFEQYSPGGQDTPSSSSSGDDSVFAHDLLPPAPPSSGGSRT
UniProt P36888, whole entry: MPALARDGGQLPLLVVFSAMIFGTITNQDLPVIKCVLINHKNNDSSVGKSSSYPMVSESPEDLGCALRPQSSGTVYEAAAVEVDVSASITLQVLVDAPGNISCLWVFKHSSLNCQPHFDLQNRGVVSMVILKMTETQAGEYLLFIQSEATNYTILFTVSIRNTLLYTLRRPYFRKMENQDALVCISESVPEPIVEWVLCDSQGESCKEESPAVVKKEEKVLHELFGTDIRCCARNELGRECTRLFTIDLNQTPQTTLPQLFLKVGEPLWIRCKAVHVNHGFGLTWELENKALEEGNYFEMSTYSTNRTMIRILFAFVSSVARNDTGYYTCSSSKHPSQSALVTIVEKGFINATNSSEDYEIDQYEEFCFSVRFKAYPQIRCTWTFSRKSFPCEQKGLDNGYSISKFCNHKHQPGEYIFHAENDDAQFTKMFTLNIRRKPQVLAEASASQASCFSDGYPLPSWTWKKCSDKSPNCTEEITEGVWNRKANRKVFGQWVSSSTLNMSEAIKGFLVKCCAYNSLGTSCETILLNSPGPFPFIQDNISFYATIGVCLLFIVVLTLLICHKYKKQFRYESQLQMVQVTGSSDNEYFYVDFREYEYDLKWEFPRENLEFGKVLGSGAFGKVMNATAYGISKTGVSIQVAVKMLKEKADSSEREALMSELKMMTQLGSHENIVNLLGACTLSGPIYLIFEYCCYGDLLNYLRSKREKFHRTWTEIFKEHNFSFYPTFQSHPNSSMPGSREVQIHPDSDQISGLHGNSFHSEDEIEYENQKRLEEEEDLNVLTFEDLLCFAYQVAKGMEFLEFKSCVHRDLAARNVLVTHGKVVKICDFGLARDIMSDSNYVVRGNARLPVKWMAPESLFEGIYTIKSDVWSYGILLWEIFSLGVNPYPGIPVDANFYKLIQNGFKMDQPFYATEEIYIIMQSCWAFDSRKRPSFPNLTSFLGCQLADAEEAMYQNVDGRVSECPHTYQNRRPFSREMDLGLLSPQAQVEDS
UniProt P06241, whole entry, looked up: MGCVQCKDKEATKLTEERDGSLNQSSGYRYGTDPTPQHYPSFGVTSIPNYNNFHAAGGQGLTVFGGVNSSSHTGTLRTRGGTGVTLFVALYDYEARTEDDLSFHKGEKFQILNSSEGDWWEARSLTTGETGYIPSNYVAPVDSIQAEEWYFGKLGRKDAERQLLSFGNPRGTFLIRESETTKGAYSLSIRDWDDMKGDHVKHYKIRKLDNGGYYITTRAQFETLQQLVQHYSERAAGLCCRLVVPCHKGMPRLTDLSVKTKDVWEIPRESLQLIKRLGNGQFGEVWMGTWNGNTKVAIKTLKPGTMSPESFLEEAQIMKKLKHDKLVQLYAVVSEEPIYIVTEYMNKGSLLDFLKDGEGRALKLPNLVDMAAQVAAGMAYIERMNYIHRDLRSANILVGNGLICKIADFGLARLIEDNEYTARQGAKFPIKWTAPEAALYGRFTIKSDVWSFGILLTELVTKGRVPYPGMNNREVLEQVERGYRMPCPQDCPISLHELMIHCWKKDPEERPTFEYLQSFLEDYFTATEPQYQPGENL

How the values were obtained:
Test in all cases: kinase-Nluc reporter destabilization hit call (1 = scored as downregulated) (binary); higher = compound decreases kinase abundance
Conditions in all cases: K562; 2-18 h
EGFR = EGFR (UniProt P00533)
EGFR_G719S = EGFR_G719S (UniProt P00533)
EGFR_G719S_T790M = EGFR_G719S_T790M (UniProt P00533)
EGFR_L718V = EGFR_L718V (UniProt P00533)
EGFR_L858R = EGFR_L858R (UniProt P00533)
EGFR_L861Q = EGFR_L861Q (UniProt P00533)
EGFR_T790M = EGFR_T790M (UniProt P00533)
EPHA2 = EPHA2 (UniProt P29317)
ERBB3 = ERBB3 (UniProt P21860)
[1] = target: ERBB4_R711C (clone: ERBB4_mut) (UniProt Q15303)
ERN1 = ERN1 (UniProt O75460)
FGFR1 = FGFR1 (UniProt P11362)
FGFR2 = FGFR2 (UniProt P21802)
FGFR3 = FGFR3 (UniProt P22607)
FGR = FGR (UniProt P09769)
FLT3 = FLT3 (UniProt P36888)
FYN = FYN (UniProt P06241)
GSK3A = GSK3A (UniProt P49840)
HER2 = HER2 (UniProt P04626)
INSRR = INSRR (UniProt P14616)

Measured: kinase-Nluc reporter destabilization hit call

O=C(Nc1ccccc1C(=O)NC1CCCCNC1=O)c1cc2ccccc2s1 (stereo not given) (10 µM)
inactive: EGFR 0 | EGFR_G719S 0 | EGFR_G719S_T790M 0 | EGFR_L718V 0 | EGFR_L858R 0 | EGFR_L861Q 0 | EGFR_T790M 0 | EPHA2 = 0 | ERBB3 = 0 | [1] 0 | ERN1 = 0 | FGFR1 = 0 | FGFR2 = 0 | FGFR3 = 0 | FGR 0 | FLT3 = 0 | FYN 0 | GSK3A 0 | HER2 = 0 | INSRR 0

O=S(=O)(c1ccc(O)cc1O)N1Cc2cc(O)cc(O)c2C1 (10 µM)
inactive: EGFR 0 | EGFR_G719S 0 | EGFR_G719S_T790M 0 | EGFR_L718V 0 | EGFR_L858R 0 | EGFR_L861Q 0 | EGFR_T790M 0 | EPHA2 = 0 | ERBB3 = 0 | [1] 0 | ERN1 = 0 | FGFR1 = 0 | FGFR2 = 0 | FGFR3 = 0 | FGR 0 | FLT3 = 0 | FYN 0 | GSK3A 0 | HER2 = 0 | INSRR 0

CN(C)CCn1cc2cc(NC(=O)c3cccc(C(F)(F)F)n3)c(C(C)(C)O)cc2n1 (10 µM)
inactive: EGFR 0 | EGFR_G719S 0 | EGFR_G719S_T790M 0 | EGFR_L718V 0 | EGFR_L858R 0 | EGFR_L861Q 0 | EGFR_T790M 0 | EPHA2 = 0 | ERBB3 = 0 | [1] 0 | ERN1 = 0 | FGFR1 = 0 | FGFR2 = 0 | FGFR3 = 0 | FGR 0 | FLT3 = 0 | FYN 0 | GSK3A 0 | HER2 = 0 | INSRR 0

CC(C)=CCC[C@](C)(O[C@@H]1O[C@H](CO[C@@H]2O[C@H](CO)[C@@H](O)[C@H](O)[C@H]2O)[C@@H](O)[C@H](O)[C@H]1O)[C@H]1CC[C@]2(C)[C@@H]1[C@H](O)C[C@@H]1[C@@]3(C)CC[C@H](O[C@@H]4O[C@H](CO)[C@@H](O)[C@H](O)[C@H]4O[C@@H]4O[C@H](CO)[C@@H](O)[C@H](O)[C@H]4O)C(C)(C)[C@@H]3CC[C@]12C [Ginsenoside Rb1] (10 µM)
inactive: EGFR 0 | EGFR_G719S 0 | EGFR_G719S_T790M 0 | EGFR_L718V 0 | EGFR_L858R 0 | EGFR_L861Q 0 | EGFR_T790M 0 | EPHA2 = 0 | ERBB3 = 0 | [1] 0 | ERN1 = 0 | FGFR1 = 0 | FGFR2 = 0 | FGFR3 = 0 | FGR 0 | FLT3 = 0 | FYN 0 | GSK3A 0 | HER2 = 0 | INSRR 0

CC1(C)CN(C(=O)c2ccc(-c3cccc4nc(NC(=O)C5CC5)nn34)cc2)C1 [Solcitinib] (10 µM)
inactive: EGFR 0 | EGFR_G719S 0 | EGFR_G719S_T790M 0 | EGFR_L718V 0 | EGFR_L858R 0 | EGFR_L861Q 0 | EGFR_T790M 0 | EPHA2 = 0 | ERBB3 = 0 | [1] 0 | ERN1 = 0 | FGFR1 = 0 | FGFR2 = 0 | FGFR3 = 0 | FGR 0 | FLT3 = 0 | FYN 0 | GSK3A 0 | HER2 = 0 | INSRR 0

COc1c(Nc2ncc(Cl)c(N[C@H]3[C@@H](C(N)=O)[C@@H]4C=C[C@H]3C4)n2)ccc2c1CC[C@@H](N1CCOCC1)CC2 (10 µM)
inactive: EGFR 0 | EGFR_G719S 0 | EGFR_G719S_T790M 0 | EGFR_L718V 0 | EGFR_L858R 0 | EGFR_L861Q 0 | EGFR_T790M 0 | EPHA2 = 0 | ERBB3 = 0 | [1] 0 | ERN1 = 0 | FGFR1 = 0 | FGFR2 = 0 | FGFR3 = 0 | FGR 0 | FLT3 = 0 | FYN 0 | GSK3A 0 | HER2 = 0 | INSRR 0

NC(=O)c1sc2c([N+](=O)[O-])cc(C(F)(F)F)cc2[n+]1[O-] [Cyclapolin 9] (10 µM)
inactive: EGFR 0 | EGFR_G719S 0 | EGFR_G719S_T790M 0 | EGFR_L718V 0 | EGFR_L858R 0 | EGFR_L861Q 0 | EGFR_T790M 0 | EPHA2 = 0 | ERBB3 = 0 | [1] 0 | ERN1 = 0 | FGFR1 = 0 | FGFR2 = 0 | FGFR3 = 0 | FGR 0 | FLT3 = 0 | FYN 0 | GSK3A 0 | HER2 = 0 | INSRR 0

CC/C(=C(\c1ccccc1)c1ccc(OCCNC)cc1)c1ccccc1 [N-Desmethyltamoxifen (hydrochloride)] (2.5 µM)
inactive: EGFR 0 | EGFR_G719S 0 | EGFR_G719S_T790M 0 | EGFR_L718V 0 | EGFR_L858R 0 | EGFR_L861Q 0 | EGFR_T790M 0 | EPHA2 = 0 | ERBB3 = 0 | [1] 0 | ERN1 = 0 | FGFR1 = 0 | FGFR2 = 0 | FGFR3 = 0 | FGR 0 | FLT3 = 0 | FYN 0 | GSK3A 0 | HER2 = 0 | INSRR 0

O=C(O)c1c[nH]c2cc(Cl)c(-c3ccc(C4(O)CCC4)cc3)cc12 (10 µM)
inactive: EGFR 0 | EGFR_G719S 0 | EGFR_G719S_T790M 0 | EGFR_L718V 0 | EGFR_L858R 0 | EGFR_L861Q 0 | EGFR_T790M 0 | EPHA2 = 0 | ERBB3 = 0 | [1] 0 | ERN1 = 0 | FGFR1 = 0 | FGFR2 = 0 | FGFR3 = 0 | FGR 0 | FLT3 = 0 | FYN 0 | GSK3A 0 | HER2 = 0 | INSRR 0

CC(=O)Nc1nc(C)c(-c2cc(C)c3c(c2)CN([C@@H](C)C2CC2)C3=O)s1 (10 µM)
inactive: EGFR 0 | EGFR_G719S 0 | EGFR_G719S_T790M 0 | EGFR_L718V 0 | EGFR_L858R 0 | EGFR_L861Q 0 | EGFR_T790M 0 | EPHA2 = 0 | ERBB3 = 0 | [1] 0 | ERN1 = 0 | FGFR1 = 0 | FGFR2 = 0 | FGFR3 = 0 | FGR 0 | FLT3 = 0 | FYN 0 | GSK3A 0 | HER2 = 0 | INSRR 0

CCOC(=O)c1c(N2CCc3ccc(OC)cc3C2)oc(C=C2C=Nc3ncccc32)c1O (10 µM)
inactive: EGFR 0 | EGFR_G719S 0 | EGFR_G719S_T790M 0 | EGFR_L718V 0 | EGFR_L858R 0 | EGFR_L861Q 0 | EGFR_T790M 0 | EPHA2 = 0 | ERBB3 = 0 | [1] 0 | ERN1 = 0 | FGFR1 = 0 | FGFR2 = 0 | FGFR3 = 0 | FGR 0 | FLT3 = 0 | FYN 0 | GSK3A 0 | HER2 = 0 | INSRR 0

CCOc1cc(=O)[nH]cc1-c1ccc(CC(=O)Nc2cc(C(C)(C)C(F)(F)F)on2)c(F)c1 (10 µM)
inactive: EGFR 0 | EGFR_G719S 0 | EGFR_G719S_T790M 0 | EGFR_L718V 0 | EGFR_L858R 0 | EGFR_L861Q 0 | EGFR_T790M 0 | EPHA2 = 0 | ERBB3 = 0 | [1] 0 | ERN1 = 0 | FGFR1 = 0 | FGFR2 = 0 | FGFR3 = 0 | FGR 0 | FLT3 = 0 | FYN 0 | GSK3A 0 | HER2 = 0 | INSRR 0

COC(=O)N1CCN(C2CCC(Nc3nc(Nc4cnn(C)c4)nc4ccc(CC#N)nc34)CC2)CC1 (stereo not given) (10 µM)
inactive: EGFR 0 | EGFR_G719S 0 | EGFR_G719S_T790M 0 | EGFR_L718V 0 | EGFR_L858R 0 | EGFR_L861Q 0 | EGFR_T790M 0 | EPHA2 = 0 | ERBB3 = 0 | [1] 0 | ERN1 = 0 | FGFR1 = 0 | FGFR2 = 0 | FGFR3 = 0 | FGR 0 | FLT3 = 0 | FYN 0 | GSK3A 0 | HER2 = 0 | INSRR 0

O=C1C=CC2=C3c4cc(O)c(O)cc4CC3(O)COC2=C1O (stereo not given) [Hematein] (10 µM)
inactive: EGFR 0 | EGFR_G719S 0 | EGFR_G719S_T790M 0 | EGFR_L718V 0 | EGFR_L858R 0 | EGFR_L861Q 0 | EGFR_T790M 0 | EPHA2 = 0 | ERBB3 = 0 | [1] 0 | ERN1 = 0 | FGFR1 = 0 | FGFR2 = 0 | FGFR3 = 0 | FGR 0 | FLT3 = 0 | FYN 0 | GSK3A 0 | HER2 = 0 | INSRR 0

CCOc1cc(N2CCC(O)CC2)ccc1Nc1ncc2c(n1)N(C1CCCC1)CCC(=O)N2C (2.5 µM)
inactive: EGFR 0 | EGFR_G719S 0 | EGFR_G719S_T790M 0 | EGFR_L718V 0 | EGFR_L858R 0 | EGFR_L861Q 0 | EGFR_T790M 0 | EPHA2 = 0 | ERBB3 = 0 | [1] 0 | ERN1 = 0 | FGFR1 = 0 | FGFR2 = 0 | FGFR3 = 0 | FGR 0 | FLT3 = 0 | FYN 0 | GSK3A 0 | HER2 = 0 | INSRR 0

CN(C)C(=O)c1cc2cnc(Nc3ccc(N4CCN(CCCCNC(=O)COc5cccc6c5C(=O)N(C5CCC(=O)NC5=O)C6=O)CC4)cn3)nc2n1C1CCCC1 (stereo not given) (10 µM)
inactive: EGFR 0 | EGFR_G719S 0 | EGFR_G719S_T790M 0 | EGFR_L718V 0 | EGFR_L858R 0 | EGFR_L861Q 0 | EGFR_T790M 0 | EPHA2 = 0 | ERBB3 = 0 | [1] 0 | ERN1 = 0 | FGFR1 = 0 | FGFR2 = 0 | FGFR3 = 0 | FGR 0 | FLT3 = 0 | FYN 0 | GSK3A 0 | HER2 = 0 | INSRR 0
